No constants are given. Whether binding was seen depends on the method and setting. Some binding calls cover weakened binding; strength is not graded here.

By UniProt entry, the sequences of proteins in these tests, tags left out.
UniProt Q7KNM2: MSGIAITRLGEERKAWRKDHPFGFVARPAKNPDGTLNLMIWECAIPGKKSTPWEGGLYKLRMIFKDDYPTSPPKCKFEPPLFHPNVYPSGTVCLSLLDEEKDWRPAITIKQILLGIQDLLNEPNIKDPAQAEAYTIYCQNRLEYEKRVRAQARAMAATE

These results are taken from paper PMC4703084.

Experiment [1] has as its target T1, Vilya (Drosophila melanogaster) (UniProt O76908).
T1 sequence: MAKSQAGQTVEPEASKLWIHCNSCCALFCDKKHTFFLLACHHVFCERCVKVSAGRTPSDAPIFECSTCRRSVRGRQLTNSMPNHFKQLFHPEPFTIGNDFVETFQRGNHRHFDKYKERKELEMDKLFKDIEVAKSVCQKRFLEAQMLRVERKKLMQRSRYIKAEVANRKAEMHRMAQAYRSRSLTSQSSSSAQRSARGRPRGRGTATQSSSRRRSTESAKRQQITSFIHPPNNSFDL
The experiment can be described thus: two-hybrid; preliminary studies, yeast two-hybrid, no details given.

Experiment [2] has as its target T1, Vilya (Drosophila melanogaster). Kind of experiment: two-hybrid; Matchmaker Gold system (Clontech), AH109 used in place of Y2HGold, Y187 for the bait; bait and prey vectors pGBKT7 and pGADT7; Vilya forms as bait; diploids equalised by OD600, six two-fold dilutions plated on SD -Leu-Trp and on the reporter plate SD -Leu-Trp-Ade-His + X-alpha-gal.
Experiment [3] addresses T2, Vilya^826 (Drosophila melanogaster) (UniProt O76908).
T2 sequence: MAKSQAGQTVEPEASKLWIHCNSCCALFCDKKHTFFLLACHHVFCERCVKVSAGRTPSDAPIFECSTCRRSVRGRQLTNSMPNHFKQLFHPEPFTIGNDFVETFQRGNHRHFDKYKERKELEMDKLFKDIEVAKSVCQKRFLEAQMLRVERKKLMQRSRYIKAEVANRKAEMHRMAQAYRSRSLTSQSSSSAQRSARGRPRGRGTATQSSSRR
The description is as above.

Take “Drosophila Ubc9 (from UniProt Q7KNM2 1-159) (enzyme)”: the binding entry in experiment [1] was “no binding”.

B1: Mei-P22 (protein, UniProt Q9VS36 1-331)
chain: MDRTTVVPSPASTYCSFMGGSQHSPLRRSQRLIDKENRDLQKIPPKSLSPQLFGNTEDDYSELLLQQGKVVHLKPAAKLVPVRSSDNLVHLGSRDKVVPLKTSNRIVHLKPPYKIIHLKSLDEVEKTVKKKNNIQKEVHQRNSQRRSIQCTPKKRGRKPKQPAKKLQSRISTDQLGSTPSPSKLPAKYPAHFVHQLPPAEDSSCATRRRSLSAPAMQLSDLSLTPDEIQTPERRGEIVNKSPSDLDSDVSLNFSLSDSIGEIFGTKDISSILTMQRPRQYILLEEHLPTLATMLNVDLERLRCVLDITQGLSHEQILRFPIKHEEDELEVP
Consider B1, for which the binding result in experiment [2] and in experiment [3] was “binds” throughout.
